Some of the results follow.
Each sequence was assayed against OsWRKY34 (Oryza sativa, UniProt Q0JBA9 1-250) (assay: protein-binding microarray (RPBM); PBS, 2% BSA, 51.3 ng/ul salmon testes DNA, 50 uM zinc acetate, 200 nM TF, 25 C, 1 h; high values mean tight binding). Details: protein: recombinant; tags: N-terminal polyhistidine and DsRed monomer fusion (pET32a); label: CyDye5-dUTP incorporated in the synthesized complementary strand; 3' TTTTT single-stranded linker to array surface; dsDNA, one strand shown.
Method in brief: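 Binding signal here means per-feature fluorescence intensity in arbitrary units. The values were read on an Axon 4000B scanner after a custom Agilent array, double-stranded by primer extension with Cy5-dUTP, was incubated with 200 nM protein at 25 °C for 1 h in PBS with 2% BSA, salmon testes DNA and 50 µM zinc acetate, then washed. The proteins were transcription factors with an N-terminal polyhistidine tag and DsRed, expressed in E. coli BL21-CodonPlus and purified on Ni–NTA.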

By UniProt entry, the sequences of proteins in these tests, tags left out.
UniProt Q0JBA9, entry or part of it: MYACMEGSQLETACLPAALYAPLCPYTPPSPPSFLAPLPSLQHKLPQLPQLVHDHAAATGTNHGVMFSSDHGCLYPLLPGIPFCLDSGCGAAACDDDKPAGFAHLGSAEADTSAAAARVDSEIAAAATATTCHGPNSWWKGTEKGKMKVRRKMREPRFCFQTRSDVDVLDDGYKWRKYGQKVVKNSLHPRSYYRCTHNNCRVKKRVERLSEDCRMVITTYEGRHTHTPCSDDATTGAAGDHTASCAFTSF

| Sequence | binding signal |
| --- | --- |
| ACTGCACCACCAATCTACTCCTATTGTGCTTACTGGTTCCCGGAGTCACCTAGTGCAG | 9780 fluorescence intensity (a.u.) |
| AGTAGTTGATGAAGATTTGCCGAAAGTGCAGGGGTATTTCCGGAGTCACCTAGTGCAG | 8120 fluorescence intensity (a.u.) |
| CGGCCGAACAGGGGAGAGGAGGGGAGGGGATCCTGGTGAGCGGAGTCACCTAGTGCAG | 9220 fluorescence intensity (a.u.) |
| ACAGGGTAAGTACTTCTGTTAAAGTCTTTCTTTTTTTTCCCGGAGTCACCTAGTGCAG | 8980 fluorescence intensity (a.u.) |
| GGCCGTAATTTTTTCTTTTTTTTTGACTATAGTGTCTCGACGGAGTCACCTAGTGCAG | 9130 fluorescence intensity (a.u.) |
| CCTATACTACTAGTAGTAGCTTGCCCCTGCGCTTGCTTGTCGGAGTCACCTAGTGCAG | 8210 fluorescence intensity (a.u.) |
| CTCCTCGCTAGTTCGCCCGCCGCGCCGCCTGCGTCGATTTCGGAGTCACCTAGTGCAG | 8080 fluorescence intensity (a.u.) |
| GCTTCAATGATTTCTGATTCTGTTGCTTCTCCCTCCTTCCCGGAGTCACCTAGTGCAG | 8560 fluorescence intensity (a.u.) |
| CGTCGTCGCTAGGGGAGGCGGTGGCGCGAGGGGAGGGAAGCGGAGTCACCTAGTGCAG | 9730 fluorescence intensity (a.u.) |
| GCCATGCAAACATGCGGCCCACTCCTCTTCGCCGCATGCCCGGAGTCACCTAGTGCAG | 10800 fluorescence intensity (a.u.) |
| ATAACCGTCCACACCCCGCTCCTGCTCCCGCCACGCCATTCGGAGTCACCTAGTGCAG | 9100 fluorescence intensity (a.u.) |
| TCTGGTGCTATAAATACCCACGAACTCTTCACTCAACATTCGGAGTCACCTAGTGCAG | 8500 fluorescence intensity (a.u.) |
| CACGCGGCTCTCCACCACCACCACTACCCGCGGAATCGGACGGAGTCACCTAGTGCAG | 8670 fluorescence intensity (a.u.) |
| GCTAGCGCTGGAATGGTCCTACTTCTTTCATTTACAACATCGGAGTCACCTAGTGCAG | 8690 fluorescence intensity (a.u.) |
| CTCCGATTTCAAGAGAGTACACCGTTGACTGGAACTCGTACGGAGTCACCTAGTGCAG | 9980 fluorescence intensity (a.u.) |
| TTGTGTCTTATGACTTATATTTTTATATTTGCACTAATTTCGGAGTCACCTAGTGCAG | 8900 fluorescence intensity (a.u.) |
| GGGGTATTCGTACTTTTTCCTTAATGTAGTAATGTGAAACCGGAGTCACCTAGTGCAG | 8500 fluorescence intensity (a.u.) |
| AGTATAGATTGCCCGTGAGATTTTTACTGAGTTCCATTCCCGGAGTCACCTAGTGCAG | 8290 fluorescence intensity (a.u.) |
| CTTGACGAGGAGGCCCGGGAGGGAGGGGTGCGGCGCGGTGCGGAGTCACCTAGTGCAG | 8220 fluorescence intensity (a.u.) |
| AATGGAATGGACAGTTGCTTGTTTTGGTAGTGCGAACTCACGGAGTCACCTAGTGCAG | 8820 fluorescence intensity (a.u.) |
| AGTATTGTTTTCTCGCTGTCTCTATCCAAATCTTTGAAAACGGAGTCACCTAGTGCAG | 17200 fluorescence intensity (a.u.) |
| TTCTTCTCGTTCAATTTCTCTTCCTCTACATTCTACGTCCCGGAGTCACCTAGTGCAG | 8310 fluorescence intensity (a.u.) |
| GCCTTGTCTCATTCTCCGTTCTCCTCTCCGCCCACCCACCCGGAGTCACCTAGTGCAG | 8030 fluorescence intensity (a.u.) |

Not a retest: entries from further up.

| Sequence | binding signal |
| --- | --- |
| CCTATACTACTAGTAGTAGCTTGCCCCTGCGCTTGCTTGTCGGAGTCACCTAGTGCAG | 8210 fluorescence intensity (a.u.) |
| CTCCTCGCTAGTTCGCCCGCCGCGCCGCCTGCGTCGATTTCGGAGTCACCTAGTGCAG | 8080 fluorescence intensity (a.u.) |
| GCTTCAATGATTTCTGATTCTGTTGCTTCTCCCTCCTTCCCGGAGTCACCTAGTGCAG | 8560 fluorescence intensity (a.u.) |
| CGTCGTCGCTAGGGGAGGCGGTGGCGCGAGGGGAGGGAAGCGGAGTCACCTAGTGCAG | 9730 fluorescence intensity (a.u.) |

Source: PMC7819943, “Rice protein-binding microarrays: a tool to detect cis-acting elements near promoter regions in rice”
